Results: patent publication US9416173B2, “Peptide and conjugate vaccines for fungal infections” (priority 2011, dated 2016)
Some results were stated once for a whole list of compounds, not compound by compound. Some ranges recur; such a range may be that of the whole group of compounds.

system: C. albicans strain 3153A; assay: Fungal challenge and assessment of protection (disseminated candidiasis), peptide vaccines; type: in vivo, BALB/c mice; conditions: peptide-pulsed DC vaccine; i.v. lethal dose of live C. albicans
Protocol: C. albicans 3153A and SC5314, C. krusei (ATCC 6258), C. glabrata (ATCC 2001) and Saccharomyces cerevisiae (ATCC 9463) were obtained from the American Type Culture Collection (ATCC; Manassas, Va.) and were grown as stationary-phase yeast cells in glucose-yeast extract-peptone broth at 37° C., washed and suspended to the appropriate cell concentration (5×10^6/ml) in Dulbecco's PBS (DPBS; Sigma-Aldrich, St. Louis, Mo.), and used to infect mice intravenously (i.v.) as previously described (25, 29). C. albicans strain 3153A was also used for serum antibody absorption, immunofluorescence staining and flow cytometric analysis. Unless otherwise indicated, C. albicans strain 3153A was used to challenge the mice in the examples below.
Two weeks after the second boost, immune and control mice were infected intravenously (i.v.) with a lethal dose of live C. albicans yeast cells (5×10^5 in 0.1 ml of DPBS) prepared as described above and as before (53). Passively immunized mice (below) also received the same challenge dose. Protection was evaluated by monitoring animal survival for 80-100 days. The mice were monitored 2-3 times daily for the development of a moribund state, defined as being listless, disinterested in food or water, and nonreactive to finger probing. At the time that a mouse was deemed moribund, it was sacrificed and their kidneys (for some experiments, brains) were homogenized in DPBS and plated onto a nutrient agar to determine colony forming units (CFUs). After 80-100 days, the experiments were terminated and all the survivors at that time were sacrificed and their kidneys were assessed for CFU as before. The lowest limit of detection for the CFU assay was 50 CFU per kidney pair.
Two weeks after the second boost, immune and control mice were infected i.v. with a lethal dose of live C. albicans yeast cells (5×10^5 in 0.1 ml of DPBS). […] Protection was evaluated by monitoring animal survival for up to 120 days and by quantifying the number of CFU (mean±SE) per kidney pairs. Median survival times (MST) were statistically evaluated by Kaplan-Meier (GraphPad Prism, version 4). […]

Sequence | survival throughout the 80-day post-challenge observation period
PRIGGQRELKKITE [Met6] | 40-80%
YGKDVKDLFDYAQE [Fba] | 40-80%
QGETEEALIQKRSY [Hwp1] | 40-80%
